These are yes or no findings as the source states them, for the method shown. Binding calls can cover weak binding; strength is not graded here.
T1: Hanks-type serine/threonine kinase YabT (Bacillus subtilis) (UniProt P37562)
T1 sequence: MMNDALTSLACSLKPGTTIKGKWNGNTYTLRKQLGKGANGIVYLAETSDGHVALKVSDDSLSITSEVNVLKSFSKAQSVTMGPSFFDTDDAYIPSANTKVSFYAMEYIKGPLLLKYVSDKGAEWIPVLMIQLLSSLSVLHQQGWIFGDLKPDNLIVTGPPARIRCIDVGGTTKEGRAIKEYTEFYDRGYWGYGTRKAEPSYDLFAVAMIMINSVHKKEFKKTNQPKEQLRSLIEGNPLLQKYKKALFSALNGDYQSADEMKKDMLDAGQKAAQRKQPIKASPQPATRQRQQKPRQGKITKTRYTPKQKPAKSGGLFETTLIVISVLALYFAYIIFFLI

T2: two-component-like kinase RsbT (Bacillus subtilis) (UniProt P42411)
T2 sequence: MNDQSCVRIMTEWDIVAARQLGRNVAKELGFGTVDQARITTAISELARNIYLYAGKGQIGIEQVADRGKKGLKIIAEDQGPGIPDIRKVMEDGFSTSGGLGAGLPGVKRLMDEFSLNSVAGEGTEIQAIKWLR


Assays:
Test in all cases: two-hybrid; yeast two-hybrid; bait as Gal4 BD fusion (pGBDU), prey as Gal4 AD fusion (pGAD); haploid cells of complementary mating types mixed in a 96 wells format; growth of diploids on selective media depleted for histidine
[1] = biological target: T1, Hanks-type serine/threonine kinase YabT (Bacillus subtilis)
[2] = biological target: T2, two-component-like kinase RsbT (Bacillus subtilis)
[3] = biological target: BY-kinase PtkB (EpsB) (Bacillus subtilis)

| Molecule | binding [1] | binding [2] | binding [3] |
| --- | --- | --- | --- |
| BY-kinase modulator TkmA (Bacillus subtilis) | binds |  |  |
| phosphotyrosine-protein phosphatase PtpZ (Bacillus subtilis) (enzyme) | binds | binds |  |
| catalytically inactive PtkA (D81A) (Bacillus subtilis) (enzyme) |  | binds |  |
| Hanks-type serine/threonine kinase YabT (enzyme, UniProt P37562 1-338) MMNDALTSLACSLKPGTTIKGKWNGNTYTLRKQLGKGANGIVYLAETSDGHVALKVSDDSLSITSEVNVLKSFSKAQSVTMGPSFFDTDDAYIPSANTKVSFYAMEYIKGPLLLKYVSDKGAEWIPVLMIQLLSSLSVLHQQGWIFGDLKPDNLIVTGPPARIRCIDVGGTTKEGRAIKEYTEFYDRGYWGYGTRKAEPSYDLFAVAMIMINSVHKKEFKKTNQPKEQLRSLIEGNPLLQKYKKALFSALNGDYQSADEMKKDMLDAGQKAAQRKQPIKASPQPATRQRQQKPRQGKITKTRYTPKQKPAKSGGLFETTLIVISVLALYFAYIIFFLI |  |  | binds |

From PMC4166321
